Measured values taken from publication PMC3867403.
These are yes or no findings as the source states them, for the method shown. In cells and extracts the contact can be indirect. For some of these results: Binding can be weak; no strength is given. Where a sequence is shown, tags or fusion partners need not be part of it.

T1: ALK5-Flag (transforming growth factor-β receptor 1, TGFBR1) (UniProt P36897)
T1 sequence: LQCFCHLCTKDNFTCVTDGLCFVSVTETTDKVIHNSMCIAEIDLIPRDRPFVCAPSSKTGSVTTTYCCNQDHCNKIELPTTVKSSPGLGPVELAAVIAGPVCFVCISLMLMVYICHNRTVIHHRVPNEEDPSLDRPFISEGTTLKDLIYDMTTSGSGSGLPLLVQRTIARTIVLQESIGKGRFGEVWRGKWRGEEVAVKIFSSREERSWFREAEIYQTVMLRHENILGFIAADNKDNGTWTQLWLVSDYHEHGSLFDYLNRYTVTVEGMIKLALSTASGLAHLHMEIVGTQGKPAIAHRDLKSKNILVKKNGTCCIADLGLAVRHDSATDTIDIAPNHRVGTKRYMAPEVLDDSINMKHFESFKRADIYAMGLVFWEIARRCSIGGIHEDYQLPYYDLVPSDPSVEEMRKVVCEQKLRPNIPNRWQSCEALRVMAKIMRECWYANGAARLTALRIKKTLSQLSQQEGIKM


Assays:
[1] = target: T1, ALK5-Flag (transforming growth factor-β receptor 1, TGFBR1); assay: co-IP; lysate (0.3% CHAPS in PBS with Ca/Mg) of HEK293 cells transfected with ALK5-Flag incubated with recombinant GST or GST-LumC50 at 4°C for 1 h with 0.5 mg/ml DSP; anti-flag Sepharose beads, eluted with flag peptide; blots with anti-flag and anti-GST; only the binder purified
[2] = target: GST-Lum (recombinant GST-lumican fusion protein) (mouse); assay: pull-down; intact HEK293 cells transfected with ALK5-Flag incubated with GST-Lum or GST (10 µg/ml) at 4°C for 1 h, then 0.5 mg/ml DSP cross-linker for 1 h; lysate applied to a glutathione-Sepharose column, eluted with 20 mM glutathione; Western blot with 1% MeSH; only the target purified
[3] = target: LumN288-c-myc (N-terminal Lum, C-terminal deletion); assay: co-IP; HEK293 cells co-transfected with ALK5-flag and Lum-myc, LumN288-myc or LumC50-myc; 0.5 mg/ml DSP on ice for 45 min; lysis in 50 mM Tris/HCl pH 7.4, 150 mM NaCl, 1% Triton X100; anti-c-myc Sepharose beads, eluted with c-myc peptide; blots with anti-flag and anti-c-myc
[4] = target: LumC50-c-myc (C-terminal Lum, N-terminal deletion); assay: as above

| binding [1] | binding [2] | binding [3] | binding [4] | Molecule |
| --- | --- | --- | --- | --- |
| binds |  |  |  | GST-LumC50 (GST fusion with the C-terminal 50 amino acids of Lum) (mouse) (domain or fragment) |
|  | binds | no binding | binds | ALK5-Flag (transforming growth factor-β receptor 1, TGFBR1) (receptor, UniProt P36897 34-503) LQCFCHLCTKDNFTCVTDGLCFVSVTETTDKVIHNSMCIAEIDLIPRDRPFVCAPSSKTGSVTTTYCCNQDHCNKIELPTTVKSSPGLGPVELAAVIAGPVCFVCISLMLMVYICHNRTVIHHRVPNEEDPSLDRPFISEGTTLKDLIYDMTTSGSGSGLPLLVQRTIARTIVLQESIGKGRFGEVWRGKWRGEEVAVKIFSSREERSWFREAEIYQTVMLRHENILGFIAADNKDNGTWTQLWLVSDYHEHGSLFDYLNRYTVTVEGMIKLALSTASGLAHLHMEIVGTQGKPAIAHRDLKSKNILVKKNGTCCIADLGLAVRHDSATDTIDIAPNHRVGTKRYMAPEVLDDSINMKHFESFKRADIYAMGLVFWEIARRCSIGGIHEDYQLPYYDLVPSDPSVEEMRKVVCEQKLRPNIPNRWQSCEALRVMAKIMRECWYANGAARLTALRIKKTLSQLSQQEGIKM |
